# Reference: the supplement of paper PMC8728848
# This is one part of the list.
# How the values were obtained:
# Assay in all cases: glycan array binding signal (z-score within array); higher = stronger binding
# Details in all cases: glycan notation: IUPAC condensed, linker removed
# [1] = biological target: Gal(b1-4)GlcNAc(b1-2)Man(a1-3)[Gal(b1-4)GlcNAc(b1-2)][GlcNAc(b1-4)]Man(b1-4)GlcNAc(b1-4)GlcNAc
# How it was run: (§1)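 The Consortium for Functional Glycomics database supplied 3228 glycan arrays, of which those lacking an available protein sequence were dropped. The binding signal, a within-array Z-score, was averaged across arrays of the same protein sequence and across linkers. Negative scores can be read as non-binding.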
# [2] = biological target: Gal(b1-4)GlcNAc(b1-2)Man(a1-3)[GlcNAc(b1-2)Man(a1-6)]Man(b1-4)GlcNAc(b1-4)GlcNAc
# How it was run: as §1
# [3] = biological target: Gal(b1-4)GlcNAc(b1-2)Man(a1-3)[GlcNAc(b1-4)][Gal(b1-4)GlcNAc(b1-2)Man(a1-6)]Man(b1-4)GlcNAc(b1-4)GlcNAc
# How it was run: as §1
# [4] = biological target: Gal(b1-4)GlcNAc(b1-2)Man(a1-3)[Man(a1-6)]Man(b1-4)GlcNAc(b1-4)GlcNAc
# How it was run: as §1
# [5] = biological target: Gal(b1-4)GlcNAc(b1-2)Man(a1-6)Man(b1-4)GlcNAc(b1-4)GlcNAc
# How it was run: as §1
# [6] = biological target: Gal(b1-4)GlcNAc(b1-2)Man(a1-6)[GlcNAc(b1-2)Man(a1-3)]Man(b1-4)GlcNAc(b1-4)GlcNAc
# How it was run: as §1
# [7] = biological target: Gal(b1-4)GlcNAc(b1-2)Man(a1-6)[Man(a1-3)]Man(b1-4)GlcNAc(b1-4)GlcNAc
# How it was run: as §1
# [8] = biological target: Gal(b1-4)GlcNAc(b1-2)[Gal(b1-4)GlcNAc(b1-4)]Man(a1-3)[Gal(b1-4)GlcNAc(b1-2)Man(a1-6)]Man(b1-4)GlcNAc(b1-4)GlcNAc
# How it was run: as §1
# [9] = biological target: Gal(b1-4)GlcNAc(b1-2)[Gal(b1-4)GlcNAc(b1-4)]Man(a1-3)[Gal(b1-4)GlcNAc(b1-2)[Gal(b1-4)GlcNAc(b1-6)]Man(a1-6)]Man(b1-4)GlcNAc(b1-4)GlcNAc
# How it was run: as §1
# [10] = biological target: Gal(b1-4)GlcNAc(b1-2)[Gal(b1-4)GlcNAc(b1-4)]Man(a1-3)[GlcNAc(b1-4)][Gal(b1-4)GlcNAc(b1-2)Man(a1-6)]Man(b1-4)GlcNAc(b1-4)GlcNAc
# How it was run: as §1
# [11] = biological target: Gal(b1-4)GlcNAc(b1-2)[Gal(b1-4)GlcNAc(b1-4)]Man(a1-3)[GlcNAc(b1-4)][Gal(b1-4)GlcNAc(b1-2)[Gal(b1-4)GlcNAc(b1-6)]Man(a1-6)]Man(b1-4)GlcNAc(b1-4)GlcNAc
# How it was run: as §1
# [12] = biological target: Gal(b1-4)GlcNAc(b1-2)[Gal(b1-4)GlcNAc(b1-6)]Man(a1-6)[Gal(b1-4)GlcNAc(b1-2)Man(a1-3)]Man(b1-4)GlcNAc(b1-4)GlcNAc
# How it was run: as §1
# [13] = biological target: Gal(b1-4)GlcNAc(b1-2)[Gal(b1-4)GlcNAc(b1-6)]Man(a1-6)[Gal(b1-4)GlcNAc(b1-2)Man(a1-3)]Man(b1-4)GlcNAc(b1-4)[Fuc(a1-6)]GlcNAc
# How it was run: as §1
# [14] = biological target: Gal(b1-4)GlcNAc(b1-2)[Gal(b1-4)GlcNAc(b1-6)]Man(a1-6)[GlcNAc(b1-4)][Gal(b1-4)GlcNAc(b1-2)Man(a1-3)]Man(b1-4)GlcNAc(b1-4)GlcNAc
# How it was run: as §1
# [15] = biological target: Gal(b1-4)GlcNAc(b1-2)[Gal(b1-4)GlcNAc(b1-6)]Man(a1-6)[GlcNAc(b1-4)][Gal(b1-4)GlcNAc(b1-2)[Gal(b1-4)GlcNAc(b1-4)]Man(a1-3)]Man(b1-4)GlcNAc(b1-4)[Fuc(a1-6)]GlcNAc
# How it was run: as §1
# [16] = biological target: Gal(b1-4)GlcNAc(b1-3)Gal(b1-3)GalNAc
# How it was run: as §1
# [17] = biological target: Gal(b1-4)GlcNAc(b1-3)Gal(b1-3)GlcNAc
# How it was run: as §1
# [18] = biological target: Gal(b1-4)GlcNAc(b1-3)Gal(b1-4)Glc
# How it was run: as §1
# [19] = biological target: Gal(b1-4)GlcNAc(b1-3)Gal(b1-4)GlcNAc
# How it was run: as §1
# [20] = biological target: Gal(b1-4)GlcNAc(b1-3)Gal(b1-4)GlcNAc(b1-2)Man(a1-3)[Gal(b1-4)GlcNAc(b1-3)Gal(b1-4)GlcNAc(b1-2)Man(a1-6)]Man(b1-4)GlcNAc(b1-4)GlcNAc
# How it was run: as §1
# [21] = biological target: Gal(b1-4)GlcNAc(b1-3)Gal(b1-4)GlcNAc(b1-2)Man(a1-3)[Gal(b1-4)GlcNAc(b1-3)Gal(b1-4)GlcNAc(b1-2)Man(a1-6)]Man(b1-4)GlcNAc(b1-4)[Fuc(a1-6)]GlcNAc
# How it was run: as §1
# [22] = biological target: Gal(b1-4)GlcNAc(b1-3)Gal(b1-4)GlcNAc(b1-2)[Gal(b1-4)GlcNAc(b1-3)Gal(b1-4)GlcNAc(b1-6)]Man(a1-6)[Gal(b1-4)GlcNAc(b1-3)Gal(b1-4)GlcNAc(b1-2)Man(a1-3)]Man(b1-4)GlcNAc(b1-4)GlcNAc
# How it was run: as §1
# [23] = biological target: Gal(b1-4)GlcNAc(b1-3)Gal(b1-4)GlcNAc(b1-2)[Gal(b1-4)GlcNAc(b1-3)Gal(b1-4)GlcNAc(b1-6)]Man(a1-6)[Gal(b1-4)GlcNAc(b1-3)Gal(b1-4)GlcNAc(b1-2)Man(a1-3)]Man(b1-4)GlcNAc(b1-4)[Fuc(a1-6)]GlcNAc
# How it was run: as §1
# [24] = biological target: Gal(b1-4)GlcNAc(b1-3)Gal(b1-4)GlcNAc(b1-3)Gal(b1-4)GlcNAc
# How it was run: as §1
# [25] = biological target: Gal(b1-4)GlcNAc(b1-3)Gal(b1-4)GlcNAc(b1-3)Gal(b1-4)GlcNAc(b1-2)Man(a1-3)[Gal(b1-4)GlcNAc(b1-3)Gal(b1-4)GlcNAc(b1-3)Gal(b1-4)GlcNAc(b1-2)Man(a1-6)]Man(b1-4)GlcNAc(b1-4)GlcNAc
# How it was run: as §1
# [26] = biological target: Gal(b1-4)GlcNAc(b1-3)Gal(b1-4)GlcNAc(b1-3)Gal(b1-4)GlcNAc(b1-2)Man(a1-3)[Gal(b1-4)GlcNAc(b1-3)Gal(b1-4)GlcNAc(b1-3)Gal(b1-4)GlcNAc(b1-2)Man(a1-6)]Man(b1-4)GlcNAc(b1-4)[Fuc(a1-6)]GlcNAc
# How it was run: as §1
binder,measurement,setting,value
KISKRILTGKK [NK11 (Sus scrofa)],glycan array binding signal (z-score),[1],-0.144
same,glycan array binding signal (z-score),[2],-0.514
same,glycan array binding signal (z-score),[3],-0.789
same,glycan array binding signal (z-score),[4],0.009
same,glycan array binding signal (z-score),[5],-0.6
same,glycan array binding signal (z-score),[6],0.152
same,glycan array binding signal (z-score),[7],0.215
same,glycan array binding signal (z-score),[8],-0.931
same,glycan array binding signal (z-score),[9],-1.25
same,glycan array binding signal (z-score),[10],-0.351
same,glycan array binding signal (z-score),[11],-0.53
same,glycan array binding signal (z-score),[12],-0.892
same,glycan array binding signal (z-score),[13],1.15
same,glycan array binding signal (z-score),[14],-0.241
same,glycan array binding signal (z-score),[15],-0.811
same,glycan array binding signal (z-score),[16],-0.605
same,glycan array binding signal (z-score),[17],-0.763
same,glycan array binding signal (z-score),[18],-0.005
same,glycan array binding signal (z-score),[19],-0.397
same,glycan array binding signal (z-score),[20],1.47
same,glycan array binding signal (z-score),[21],2.38
same,glycan array binding signal (z-score),[22],-0.957
same,glycan array binding signal (z-score),[23],1.67
same,glycan array binding signal (z-score),[24],-0.612
same,glycan array binding signal (z-score),[25],0.967
same,glycan array binding signal (z-score),[26],2.04
